Experimental data reported in paper PMC2581486.
These are yes or no findings as the source states them, for the method shown. Some binding calls cover weakened binding; strength is not graded here.

Target: outer membrane protein F (WT OmpF), trimer purified from the outer membrane with bound LPS (E. coli) (UniProt P02931)
Experiment: electron crystallography of negatively stained 2D crystals; both purified

binding: binds
B1: outer membrane protein F (WT OmpF), trimer purified from the outer membrane with bound LPS (protein, UniProt P02931 23-362)
chain: AEIYNKDGNKVDLYGKAVGLHYFSKGNGENSYGGNGDMTYARLGFKGETQINSDLTGYGQWEYNFQGNNSEGADAQTGNKTRLAFAGLKYADVGSFDYGRNYGVVYDALGYTDMLPEFGGDTAYSDDFFVGRVGGVATYRNSNFFGLVDGLNFAVQYLGKNERDTARRSNGDGVGGSISYEYEGFGIVGAYGAADRTNLQEAQPLGNGKKAEQWATGLKYDANNIYLAANYGETRNATPITNKFTNTSGFANKTQDVLLVAQYQFDFGLRPSIAYTKSKAKDVEGIGDVDLVNYFEVGATYYFNKNMSTYVDYIINQIDSDNKLGVGSDDTVAVGIVYQF
